Data published in publication PMC10648081.
Results are given in words; binding and its absence hold for the method and conditions named. Some results given as binding are weak or reduced against the parent protein; the word gives no strength. Tags and fused reporters may be left off the sequences shown.

Key:
Assay in all cases: two-hybrid; CP190 variants fused to the GAL4 DNA-binding domain (pGBT9), C2H2 proteins fused to the GAL4 activating domain (pGAD424); yeast PJ69-4a; growth on medium without tryptophan, leucine, histidine and adenine, 30 °C, compared after 2-3 days; repeated three times
[1] = target: T1, CP190 309–390 aa fused to the GAL4 DNA-binding domain (Drosophila melanogaster) (UniProt Q24478)
T1 sequence: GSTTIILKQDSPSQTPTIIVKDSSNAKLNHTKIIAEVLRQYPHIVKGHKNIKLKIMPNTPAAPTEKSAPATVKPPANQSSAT

[2] = target: T2, CP190 309–470 aa fused to the GAL4 DNA-binding domain (Drosophila melanogaster) (UniProt Q24478)
T2 sequence: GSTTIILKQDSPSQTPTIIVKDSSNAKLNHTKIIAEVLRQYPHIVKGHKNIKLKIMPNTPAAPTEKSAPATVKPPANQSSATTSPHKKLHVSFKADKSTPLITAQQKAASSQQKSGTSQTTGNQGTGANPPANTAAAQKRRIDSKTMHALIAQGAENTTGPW

[3] = target: T3, CP190 1–245 aa fused to the GAL4 DNA-binding domain (Drosophila melanogaster) (UniProt Q24478)
T3 sequence: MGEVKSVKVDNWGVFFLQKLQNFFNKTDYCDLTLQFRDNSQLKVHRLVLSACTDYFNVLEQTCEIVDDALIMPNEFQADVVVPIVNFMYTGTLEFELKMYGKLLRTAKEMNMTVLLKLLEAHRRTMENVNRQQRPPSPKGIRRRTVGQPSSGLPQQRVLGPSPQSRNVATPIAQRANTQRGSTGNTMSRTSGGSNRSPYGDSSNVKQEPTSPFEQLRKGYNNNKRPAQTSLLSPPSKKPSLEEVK

- binding [1]: binds
- binding [2]: binds
- binding [3]: binds
B1: ZIPIC fused to the GAL4 activating domain (protein, UniProt Q9VAB8 1-457)
chain: MNCCICQFSVRVPKDIHTDTVGHPPVLISELVLQCTRGTNYVLTEESSTICKKCCEKLARYHKSIQIARKLRGEILELIHSPYMSKDHKQTSYKEDDLDRETTISKFDGNIEEAQQQDEEEQELESVGTTVTLVGPAGIVEEVAEEEHTFIIKQSEEEDEFHSVDLELDIDNEIIINEEEAHEVEEVAHEIEEVAHEIEEEDLLPHDKQEAQEEDFFKEDTMSDFDEHLDGAIEYIISDGEDQEQDNESSGEYTVNIQCPSCPEKFSSRRAYNVHTKREHFPGYVCDQCGKTLQSYSGFIGHLQNHEPVKQFACPVCPERFSRKFRLKHHMAWHSGETPYQCDVCSKRFVHKVALYKHKMIHDSETKRLECQVCGFKTRTKAHLERHMRSHTGDKPFACPVCNKRFSQMYNMKAHLREHESPGTNRHRRFHCSKCTHTFINEQNYDAHVQRDDCTPV
